Test results reported in the supplement of paper PMC10470496.
Counter-ions that a name gives are not always drawn. Some of the results follow. Repeats are few or missing, and single values can be far off.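 Three clinical Candida auris isolates (clades III, IV and I) from the CDC resistance isolate bank were grown in RPMI-1640 at 35°C. Growth was background-corrected OD600 relative to same-plate vehicle-only wells. Hits required over 50% inhibition in at least two strains and a plate-corrected B-score above 0.1.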

Experiments:
Assay in all cases: growth relative to vehicle control (OD600 ratio) (fraction); higher = less inhibition
Conditions in all cases: 24 h
C. auris AR-384 = system: C. auris AR-384
C. auris AR-386 = system: C. auris AR-386
C. auris AR-387 = system: C. auris AR-387

Row | SMILES | growth (C. auris AR-384; 1 µM) | growth (C. auris AR-384; 10 µM) | growth (C. auris AR-386; 1 µM) | growth (C. auris AR-386; 10 µM) | growth (C. auris AR-387; 1 µM) | growth (C. auris AR-387; 10 µM)
1 | CC[C@@H](C(N)=O)N1CCCC1=O [Levetiracetam] | 1.29 | 1.46 | 1.14 | 0.85 | 0.7 | 0.67
2 | C#C[C@]1(O)C=C[C@H]2[C@@H]3CCC4=CC(=O)CC[C@@H]4[C@H]3CC[C@@]21CC [Gestodene] | 1.09 | 0.8 | 0.83 | 1.2 | 1.21 | 0.81
3 | Cc1cccc(C(C)c2c[nH]cn2)c1C (stereo not given) [Medetomidine HCl] | 1.22 | 0.97 | 1.25 | 0.91 | 1.08 | 0.99
4 | CN1[C@@H]2CC[C@H]1C[C@@H](OC(=O)C(CO)c1ccccc1)C2 (stereo not given in full) [Atropine sulfate monohydrate] | 0.89 | 0.8 | 0.74 | 0.75 | 0.67 | 0.63
5 | O=C1CC[C@@]2(O)[C@H]3Cc4ccc(O)c5c4[C@@]2(CCN3CC2CC2)[C@H]1O5 [Naltrexone HCl] | 0.68 | 0.8 | 0.74 | 1.06 | 1.11 | 0.9
6 | C=C1C[C@@H]2[C@H](CC[C@]3(C)C(=O)CC[C@@H]23)[C@@]2(C)C=CC(=O)C=C12 [Exemestane] | 1.2 | 0.82 | 0.83 | 1.31 | 1.07 | 0.83
7 | Cn1c(COP(=O)(NCCBr)NCCBr)cnc1[N+](=O)[O-] | 0.81 | 0.96 | 0.93 | 0.66 | 0.73 | 0.84
8 | C#CCN(C)[C@H](C)Cc1ccccc1 [Selegiline HCl] | 0.64 | 0.53 | 0.82 | 0.85 | 1.07 | 0.74
9 | CN1[C@@H]2C[C@@H](OC(=O)[C@H](CO)c3ccccc3)C[C@H]1[C@@H]1O[C@@H]12 [Scopolamine HBr] | 0.8 | 0.9 | 0.53 | 0.82 | 0.68 | 0.67
10 | C=CN1CCCC1=O.II [Povidone iodine] | 0.82 | 0.9 | 0.68 | 0.67 | 0.74 | 0.76
11 | O=[N+]([O-])O[C@@H]1CO[C@H]2[C@@H]1OC[C@@H]2O [Isosorbide Mononitrate] | 1.6 | 1.4 | 1.15 | 1.03 | 1.04 | 1.04
12 | O=C(O)CCCc1ccc(N(CCCl)CCCl)cc1 [Chloroambucil] | 0.79 | 0.77 | 0.68 | 0.7 | 0.6 | 0.79
13 | O=c1[nH]c2ccccc2n1CCCN1CCC(n2c(=O)[nH]c3cc(Cl)ccc32)CC1 [Domperidone] | 0.97 | 0.99 | 1.21 | 0.67 | 0.68 | 0.62
14 | CN(C)C(=O)Oc1ccc[n+](C)c1 [Pyridostigmine Bromide] | 1.07 | 0.97 | 1.08 | 0.97 | 0.93 | 0.87
15 | Cc1cccc([C@H](C)c2c[nH]cn2)c1C [Dexmedetomidine HCl] | 1.02 | 1.09 | 1.08 | 0.84 | 0.57 | 0.98
16 | CN1c2ccccc2C(NCCCCCCC(=O)O)c2ccc(Cl)cc2S1(=O)=O (stereo not given) [Tianeptine sodium] | 1.05 | 0.78 | 0.87 | 1.06 | 0.87 | 1.09
17 | C[C@@H]1O[C@@H](O[C@H]2C[C@@H](O)[C@]3(CO)[C@H]4[C@H](O)C[C@]5(C)[C@@H](C6=CC(=O)OC6)CC[C@]5(O)[C@@H]4CC[C@]3(O)C2)[C@H](O)[C@H](O)[C@H]1O [Ouabain] | 1.08 | 1.01 | 0.79 | 0.91 | 0.78 | 1.01
18 | O=P1(N(CCCl)CCCl)NCCCO1 (stereo not given) [Cyclophosphamide Monohydrate] | 0.84 | 0.72 | 0.95 | 0.83 | 0.95 | 1.15
19 | CN1CCN(C(=O)O[C@H]2c3nccnc3C(=O)N2c2ccc(Cl)cn2)CC1 [Eszopiclone] | 0.98 | 0.87 | 1.19 | 0.71 | 0.67 | 0.76
20 | NC(=O)CN1CCCC1=O [Piracetam] | 0.99 | 0.97 | 0.79 | 1.17 | 1.01 | 0.97
21 | C[N+]1(C)[C@@H]2C[C@@H](OC(=O)[C@H](CO)c3ccccc3)C[C@H]1[C@@H]1O[C@@H]12 [Methscopolamine] | 1.06 | 1.28 | 0.98 | 0.82 | 0.84 | 1.07
22 | Cc1cc(O)ccc1Cl [Chlorocresol] | 0.69 | 0.61 | 0.8 | 0.34 | 0.82 | 0.79
23 | O=C(O[C@H]1C[C@H]2CC[C@@H](C1)[N+]21CCCC1)C(O)(c1ccccc1)c1ccccc1 [Trospium chloride] | 1.13 | 0.88 | 0.93 | 1.41 | 0.81 | 0.78
24 | N[C@@H]1C[C@H]1c1ccccc1 [Tranylcypromine (2-PCPA) HCl] | 0.95 | 0.88 | 1.3 | 0.74 | 0.86 | 0.85
25 | CC(=O)O[C@H]1C[C@@H]2CC[C@@H]3[C@H](CC[C@@]4(C)[C@H]3C[C@H]([N+]3(C)CCCCC3)[C@@H]4OC(C)=O)[C@@]2(C)C[C@@H]1[N+]1(C)CCCCC1 [Pancuronium dibromide] | 0.77 | 0.9 | 0.73 | 1.1 | 1.05 | 0.76

A stretch taken from the entries so far:
Row | SMILES | growth (C. auris AR-384; 1 µM) | growth (C. auris AR-384; 10 µM) | growth (C. auris AR-386; 1 µM) | growth (C. auris AR-386; 10 µM) | growth (C. auris AR-387; 1 µM) | growth (C. auris AR-387; 10 µM)
21 | C[N+]1(C)[C@@H]2C[C@@H](OC(=O)[C@H](CO)c3ccccc3)C[C@H]1[C@@H]1O[C@@H]12 [Methscopolamine] | 1.06 | 1.28 | 0.98 | 0.82 | 0.84 | 1.07
22 | Cc1cc(O)ccc1Cl [Chlorocresol] | 0.69 | 0.61 | 0.8 | 0.34 | 0.82 | 0.79
23 | O=C(O[C@H]1C[C@H]2CC[C@@H](C1)[N+]21CCCC1)C(O)(c1ccccc1)c1ccccc1 [Trospium chloride] | 1.13 | 0.88 | 0.93 | 1.41 | 0.81 | 0.78
24 | N[C@@H]1C[C@H]1c1ccccc1 [Tranylcypromine (2-PCPA) HCl] | 0.95 | 0.88 | 1.3 | 0.74 | 0.86 | 0.85

(next part)

Row | SMILES | growth (C. auris AR-384; 1 µM) | growth (C. auris AR-384; 10 µM) | growth (C. auris AR-386; 1 µM) | growth (C. auris AR-386; 10 µM) | growth (C. auris AR-387; 1 µM) | growth (C. auris AR-387; 10 µM)
26 | CCC1(C)CC(=O)NC(=O)C1 [Bemegride] | 0.96 | 0.79 | 1.12 | 0.78 | 0.77 | 0.65
27 | Cc1cccc([C@H](C)c2c[nH]cn2)c1C [Dexmedetomidine] | 1.23 | 1.31 | 1.5 | 1.24 | 1.61 | 1.23
28 | NCC1(CC(=O)O)CCCCC1 [Gabapentin HCl] | 0.62 | 0.45 | 0.93 | 0.73 | 0.73 | 0.76
29 | Cn1c(CCCC(=O)O)nc2cc(N(CCCl)CCCl)ccc21 [Bendamustine HCl] | 0.67 | 1.14 | 1.16 | 0.98 | 0.84 | 1.07
30 | [O-][n+]1ccccc1[S-].[O-][n+]1ccccc1[S-].[Zn+2] [Zinc Pyrithione] | 0.88 | 0.69 | 0.76 | 0.48 | 0.57 | 0.65
31 | NCCCNCCSP(=O)(O)O [Amifostine] | 0.59 | 0.56 | 0.82 | 0.85 | 0.74 | 0.67
32 | CCCC[N+]1(C)[C@@H]2C[C@@H](OC(=O)[C@H](CO)c3ccccc3)C[C@H]1[C@@H]1O[C@@H]12 (stereo not given in full) [Butylscopolamine Bromide] | 1.38 | 1.49 | 1.45 | 1.18 | 1.31 | 1.07
33 | CCCCCCCCCCCCCCCC[n+]1ccccc1 [Cetylpyridinium Chloride] | 0.86 | 0.14 | 0.74 | 0.01 | 1 | 0.01
34 | C[C@]12CCC(=O)C(O)=C1CC[C@@H]1[C@@H]2CC[C@]2(C)C(=O)CC[C@@H]12 [Formestane] | 0.69 | 0.8 | 0.76 | 0.82 | 0.74 | 0.9
35 | C=CC[C@]1(O)CC[C@H]2[C@@H]3CCC4=CC(=O)CCC4=C3C=C[C@@]21C [Altrenogest] | 0.87 | 1.02 | 0.88 | 0.87 | 1.24 | 1.22
36 | CC[C@H]1CN2CC[C@H]1C[C@@H]2[C@@H](O)c1ccnc2ccc(OC)cc12 [Hydroquinidine] | 1.05 | 0.84 | 0.88 | 1.04 | 0.85 | 1.2
37 | CCOC(=O)Nc1ccc(NCc2ccc(F)cc2)cc1N [Retigabine 2HCl] | 1.12 | 1.41 | 1.04 | 1.23 | 0.93 | 1.25
38 | O=P1(NCCCl)OCCCN1CCCl (stereo not given) [Ifosfamide] | 1.06 | 1.05 | 1.2 | 1.21 | 1.12 | 1.19
39 | CC(C)NCC(O)c1ccccc1Cl (stereo not given) [Clorprenaline HCl] | 0.75 | 0.76 | 0.77 | 0.93 | 0.63 | 0.78
40 | CC(=O)OC1CN2CCC1CC2 (stereo not given) [Aceclidine HCl] | 1.31 | 1.27 | 1.19 | 1.09 | 1.11 | 0.97
41 | Cn1cc(C2=C(c3cn(C4CCN(Cc5ccccn5)CC4)c4ccccc34)C(=O)NC2=O)c2ccccc21 | 1.1 | 0.53 | 0.76 | 0.72 | 0.69 | 0.94
42 | N[C@@H](Cc1ccc(N(CCCl)CCCl)cc1)C(=O)O [Melphalan] | 0.75 | 0.86 | 0.78 | 0.59 | 0.61 | 0.7
43 | COc1ccc(C(CN(C)C)C2(O)CCCCC2)cc1 (stereo not given) [Venlafaxine HCl] | 0.74 | 0.52 | 0.84 | 1.1 | 0.75 | 0.79
44 | CCN(C)C(=O)Oc1cccc([C@H](C)N(C)C)c1 [Rivastigmine] | 1.16 | 1.43 | 0.97 | 0.8 | 0.91 | 0.95
45 | CCc1cc2c(s1)-n1c(C)nnc1CN=C2c1ccccc1Cl [Etizolam] | 0.88 | 0.75 | 0.98 | 0.66 | 0.83 | 0.62
46 | CC(NC(C)(C)C)C(=O)c1cccc(Cl)c1 (stereo not given) [Amfebutamone (Bupropion) HCl] | 0.96 | 0.85 | 1.13 | 0.86 | 0.92 | 0.77
47 | CN(C)C(=O)Oc1cccc([N+](C)(C)C)c1 [Neostigmine Bromide] | 0.84 | 0.6 | 0.86 | 0.81 | 0.67 | 0.81
48 | NC(=O)C[S@@+]([O-])C(c1ccccc1)c1ccccc1 [Armodafinil] | 0.78 | 0.77 | 0.86 | 1.02 | 0.7 | 0.87
49 | C=C1CC[C@@]2(O)[C@H]3Cc4ccc(O)c5c4[C@@]2(CCN3CC2CC2)[C@H]1O5 [Nalmefene HCl] | 1.24 | 1.3 | 1.17 | 1.35 | 1.07 | 1
50 | O=C(O[C@H]1C[N+]2(CCCOc3ccccc3)CCC1CC2)C(O)(c1cccs1)c1cccs1 [Aclidinium Bromide] | 0.9 | 0.86 | 0.61 | 0.81 | 0.67 | 0.94
